Source: the supplement of paper PMC7666118
This is one part of the list.

The chains behind the UniProt entries cited, without tags or fusion partners. Where a name states a change or a piece, a line headed by the entry shows the natural chain unless it says otherwise.
UniProt Q01543: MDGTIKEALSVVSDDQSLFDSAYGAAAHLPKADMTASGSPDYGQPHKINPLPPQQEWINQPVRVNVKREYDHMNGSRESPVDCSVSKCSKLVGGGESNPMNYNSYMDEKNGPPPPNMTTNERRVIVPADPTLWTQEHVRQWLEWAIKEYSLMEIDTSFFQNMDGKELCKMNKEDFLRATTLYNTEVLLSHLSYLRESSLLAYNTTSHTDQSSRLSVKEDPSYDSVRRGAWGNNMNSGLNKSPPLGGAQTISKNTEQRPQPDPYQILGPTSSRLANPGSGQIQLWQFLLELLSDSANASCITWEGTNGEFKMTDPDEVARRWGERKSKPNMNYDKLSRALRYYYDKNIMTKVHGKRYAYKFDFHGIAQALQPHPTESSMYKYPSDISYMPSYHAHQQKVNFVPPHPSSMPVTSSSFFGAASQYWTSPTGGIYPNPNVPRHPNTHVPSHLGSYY
UniProt Q9P107: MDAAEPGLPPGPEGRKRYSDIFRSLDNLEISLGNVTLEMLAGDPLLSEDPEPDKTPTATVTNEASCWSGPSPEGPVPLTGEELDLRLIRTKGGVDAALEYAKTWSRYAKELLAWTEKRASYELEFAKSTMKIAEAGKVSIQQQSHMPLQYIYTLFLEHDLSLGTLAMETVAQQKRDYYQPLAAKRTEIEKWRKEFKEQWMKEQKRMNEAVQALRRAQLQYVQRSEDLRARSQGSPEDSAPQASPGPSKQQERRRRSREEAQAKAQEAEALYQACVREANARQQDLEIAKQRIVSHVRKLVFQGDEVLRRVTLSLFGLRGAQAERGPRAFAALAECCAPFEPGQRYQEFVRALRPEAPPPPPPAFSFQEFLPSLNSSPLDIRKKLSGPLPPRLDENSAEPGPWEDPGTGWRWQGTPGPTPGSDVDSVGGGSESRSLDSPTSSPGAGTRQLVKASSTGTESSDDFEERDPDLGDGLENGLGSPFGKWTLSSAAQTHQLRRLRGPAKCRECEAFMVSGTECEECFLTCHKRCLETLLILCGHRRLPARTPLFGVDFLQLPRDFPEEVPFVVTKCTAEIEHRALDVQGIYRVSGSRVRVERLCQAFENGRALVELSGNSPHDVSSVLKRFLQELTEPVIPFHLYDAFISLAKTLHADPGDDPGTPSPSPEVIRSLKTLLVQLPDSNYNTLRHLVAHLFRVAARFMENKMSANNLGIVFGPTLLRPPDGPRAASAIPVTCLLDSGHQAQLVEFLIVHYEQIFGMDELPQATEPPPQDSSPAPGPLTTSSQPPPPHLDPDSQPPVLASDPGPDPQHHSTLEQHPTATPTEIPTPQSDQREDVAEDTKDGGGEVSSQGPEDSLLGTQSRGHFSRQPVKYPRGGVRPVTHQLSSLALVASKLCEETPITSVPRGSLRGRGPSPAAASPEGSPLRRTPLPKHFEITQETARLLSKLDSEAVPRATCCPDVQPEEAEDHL
UniProt O43716: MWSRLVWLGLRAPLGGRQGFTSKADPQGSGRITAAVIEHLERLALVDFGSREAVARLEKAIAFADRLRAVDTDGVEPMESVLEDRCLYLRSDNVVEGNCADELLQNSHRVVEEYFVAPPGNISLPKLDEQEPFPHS
UniProt Q5HYJ3: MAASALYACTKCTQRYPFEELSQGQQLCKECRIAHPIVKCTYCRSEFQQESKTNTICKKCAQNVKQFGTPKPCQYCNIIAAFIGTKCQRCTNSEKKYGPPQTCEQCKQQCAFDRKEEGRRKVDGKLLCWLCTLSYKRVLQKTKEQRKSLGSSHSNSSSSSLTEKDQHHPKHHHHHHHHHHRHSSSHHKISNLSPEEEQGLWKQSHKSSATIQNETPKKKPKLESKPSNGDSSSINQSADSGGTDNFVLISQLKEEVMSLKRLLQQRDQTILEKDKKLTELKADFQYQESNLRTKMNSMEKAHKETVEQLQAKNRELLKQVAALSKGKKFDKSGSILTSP
UniProt Q17RN3: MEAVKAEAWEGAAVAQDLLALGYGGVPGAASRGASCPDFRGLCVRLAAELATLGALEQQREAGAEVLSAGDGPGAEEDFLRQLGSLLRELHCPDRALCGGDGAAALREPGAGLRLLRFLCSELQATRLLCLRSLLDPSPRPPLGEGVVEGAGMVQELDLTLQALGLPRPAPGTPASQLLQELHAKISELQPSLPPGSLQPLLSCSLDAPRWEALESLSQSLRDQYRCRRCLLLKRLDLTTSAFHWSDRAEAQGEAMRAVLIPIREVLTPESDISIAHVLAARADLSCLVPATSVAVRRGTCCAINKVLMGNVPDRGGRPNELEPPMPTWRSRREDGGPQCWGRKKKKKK
UniProt O76003: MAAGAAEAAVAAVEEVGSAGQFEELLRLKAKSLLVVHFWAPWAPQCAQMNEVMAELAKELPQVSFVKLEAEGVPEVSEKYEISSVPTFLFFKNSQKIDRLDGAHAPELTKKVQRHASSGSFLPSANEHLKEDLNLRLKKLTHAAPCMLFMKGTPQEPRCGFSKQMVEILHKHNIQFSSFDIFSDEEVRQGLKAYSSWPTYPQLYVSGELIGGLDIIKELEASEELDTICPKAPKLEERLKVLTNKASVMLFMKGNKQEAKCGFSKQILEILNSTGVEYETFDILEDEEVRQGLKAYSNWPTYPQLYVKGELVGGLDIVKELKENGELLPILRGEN
UniProt O14526: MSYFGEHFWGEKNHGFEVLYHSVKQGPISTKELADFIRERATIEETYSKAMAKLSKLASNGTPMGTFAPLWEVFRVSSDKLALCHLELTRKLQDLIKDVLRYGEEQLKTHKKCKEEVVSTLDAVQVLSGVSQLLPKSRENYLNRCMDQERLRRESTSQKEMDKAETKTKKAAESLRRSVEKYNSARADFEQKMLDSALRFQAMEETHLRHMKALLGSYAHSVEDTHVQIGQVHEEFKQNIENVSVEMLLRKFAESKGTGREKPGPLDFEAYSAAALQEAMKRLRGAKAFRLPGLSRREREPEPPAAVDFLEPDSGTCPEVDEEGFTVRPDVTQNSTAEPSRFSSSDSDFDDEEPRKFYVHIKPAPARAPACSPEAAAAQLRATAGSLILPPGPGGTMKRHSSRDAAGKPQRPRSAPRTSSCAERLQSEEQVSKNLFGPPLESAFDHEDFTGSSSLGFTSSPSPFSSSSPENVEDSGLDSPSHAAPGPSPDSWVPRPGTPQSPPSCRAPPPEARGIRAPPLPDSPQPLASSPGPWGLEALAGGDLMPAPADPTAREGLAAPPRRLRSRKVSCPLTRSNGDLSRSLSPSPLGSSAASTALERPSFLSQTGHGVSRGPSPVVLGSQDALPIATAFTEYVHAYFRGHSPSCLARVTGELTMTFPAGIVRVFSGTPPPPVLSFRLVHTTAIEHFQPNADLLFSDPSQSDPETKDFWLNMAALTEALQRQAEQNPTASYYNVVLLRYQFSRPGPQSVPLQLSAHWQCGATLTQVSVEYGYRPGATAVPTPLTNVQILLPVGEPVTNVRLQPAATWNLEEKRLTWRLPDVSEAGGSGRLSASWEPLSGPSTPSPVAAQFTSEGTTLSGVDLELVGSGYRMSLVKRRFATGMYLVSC
UniProt P30047: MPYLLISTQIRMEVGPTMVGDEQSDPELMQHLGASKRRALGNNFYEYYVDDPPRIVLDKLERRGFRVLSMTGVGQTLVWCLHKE
UniProt Q05932: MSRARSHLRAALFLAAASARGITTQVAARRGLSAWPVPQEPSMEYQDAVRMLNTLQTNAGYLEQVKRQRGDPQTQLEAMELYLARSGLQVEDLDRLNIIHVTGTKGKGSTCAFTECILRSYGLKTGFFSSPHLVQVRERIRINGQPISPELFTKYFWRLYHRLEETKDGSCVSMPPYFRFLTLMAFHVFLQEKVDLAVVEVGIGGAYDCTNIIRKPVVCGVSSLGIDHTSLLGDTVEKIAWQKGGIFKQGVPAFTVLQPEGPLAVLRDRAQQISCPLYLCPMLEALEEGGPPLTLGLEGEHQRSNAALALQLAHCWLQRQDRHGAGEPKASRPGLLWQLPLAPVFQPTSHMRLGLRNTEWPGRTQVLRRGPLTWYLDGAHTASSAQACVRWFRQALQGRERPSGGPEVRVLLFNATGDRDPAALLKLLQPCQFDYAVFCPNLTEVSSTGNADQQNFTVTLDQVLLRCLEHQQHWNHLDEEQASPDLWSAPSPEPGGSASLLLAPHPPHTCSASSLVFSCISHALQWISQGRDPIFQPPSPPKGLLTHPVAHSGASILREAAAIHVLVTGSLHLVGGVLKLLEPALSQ
UniProt Q495W5: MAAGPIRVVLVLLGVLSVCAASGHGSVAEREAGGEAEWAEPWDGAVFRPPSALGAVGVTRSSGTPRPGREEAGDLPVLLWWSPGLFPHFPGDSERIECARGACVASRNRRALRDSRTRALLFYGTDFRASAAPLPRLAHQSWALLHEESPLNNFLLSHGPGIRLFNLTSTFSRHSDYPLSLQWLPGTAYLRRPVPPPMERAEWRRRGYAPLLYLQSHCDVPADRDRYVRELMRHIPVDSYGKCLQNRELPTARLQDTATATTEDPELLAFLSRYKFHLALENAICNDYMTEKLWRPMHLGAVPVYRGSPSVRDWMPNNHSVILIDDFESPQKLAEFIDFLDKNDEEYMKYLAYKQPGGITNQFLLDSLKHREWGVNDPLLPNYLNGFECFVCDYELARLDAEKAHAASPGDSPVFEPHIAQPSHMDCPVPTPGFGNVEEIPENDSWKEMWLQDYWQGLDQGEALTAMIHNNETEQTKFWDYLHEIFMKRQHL
UniProt P48506: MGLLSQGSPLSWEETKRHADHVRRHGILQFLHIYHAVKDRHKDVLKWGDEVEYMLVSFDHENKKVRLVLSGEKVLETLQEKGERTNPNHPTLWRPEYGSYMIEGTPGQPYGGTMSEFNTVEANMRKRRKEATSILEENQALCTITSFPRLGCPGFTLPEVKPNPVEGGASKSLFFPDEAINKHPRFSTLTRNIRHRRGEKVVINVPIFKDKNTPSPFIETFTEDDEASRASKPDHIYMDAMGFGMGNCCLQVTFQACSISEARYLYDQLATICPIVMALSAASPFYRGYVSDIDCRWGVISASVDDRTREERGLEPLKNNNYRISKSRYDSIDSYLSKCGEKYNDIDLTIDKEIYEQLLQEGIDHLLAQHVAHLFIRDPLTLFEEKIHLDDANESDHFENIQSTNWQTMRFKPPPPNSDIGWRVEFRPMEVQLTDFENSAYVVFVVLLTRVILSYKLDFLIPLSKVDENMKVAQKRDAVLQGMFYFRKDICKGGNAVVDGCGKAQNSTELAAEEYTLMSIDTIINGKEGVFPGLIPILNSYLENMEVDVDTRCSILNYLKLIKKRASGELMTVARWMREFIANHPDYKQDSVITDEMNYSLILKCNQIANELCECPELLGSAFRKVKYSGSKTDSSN
UniProt Q9Y248: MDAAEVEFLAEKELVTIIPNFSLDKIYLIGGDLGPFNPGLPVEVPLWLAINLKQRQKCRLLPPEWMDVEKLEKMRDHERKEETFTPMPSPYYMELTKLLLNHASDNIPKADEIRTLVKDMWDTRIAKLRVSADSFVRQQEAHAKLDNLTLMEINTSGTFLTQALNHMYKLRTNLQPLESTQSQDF
UniProt Q06210: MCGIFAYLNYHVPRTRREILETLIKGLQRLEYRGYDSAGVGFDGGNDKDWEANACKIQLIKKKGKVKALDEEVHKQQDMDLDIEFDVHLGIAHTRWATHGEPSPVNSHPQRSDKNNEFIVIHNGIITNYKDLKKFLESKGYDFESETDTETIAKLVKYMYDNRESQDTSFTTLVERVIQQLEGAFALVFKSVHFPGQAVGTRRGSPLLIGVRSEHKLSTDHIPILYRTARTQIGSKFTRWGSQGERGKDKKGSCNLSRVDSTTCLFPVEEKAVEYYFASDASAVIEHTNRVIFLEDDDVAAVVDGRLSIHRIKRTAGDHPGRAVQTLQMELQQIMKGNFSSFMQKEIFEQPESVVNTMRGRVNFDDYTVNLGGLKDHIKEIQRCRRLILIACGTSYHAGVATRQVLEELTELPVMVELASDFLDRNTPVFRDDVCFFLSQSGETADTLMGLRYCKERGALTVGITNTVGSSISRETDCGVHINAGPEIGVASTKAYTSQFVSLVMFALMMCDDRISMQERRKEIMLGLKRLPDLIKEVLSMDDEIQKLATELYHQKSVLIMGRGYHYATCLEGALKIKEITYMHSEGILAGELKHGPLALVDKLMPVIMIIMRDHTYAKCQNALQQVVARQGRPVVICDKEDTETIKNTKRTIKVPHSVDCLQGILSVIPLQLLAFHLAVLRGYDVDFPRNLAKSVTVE
UniProt P50440: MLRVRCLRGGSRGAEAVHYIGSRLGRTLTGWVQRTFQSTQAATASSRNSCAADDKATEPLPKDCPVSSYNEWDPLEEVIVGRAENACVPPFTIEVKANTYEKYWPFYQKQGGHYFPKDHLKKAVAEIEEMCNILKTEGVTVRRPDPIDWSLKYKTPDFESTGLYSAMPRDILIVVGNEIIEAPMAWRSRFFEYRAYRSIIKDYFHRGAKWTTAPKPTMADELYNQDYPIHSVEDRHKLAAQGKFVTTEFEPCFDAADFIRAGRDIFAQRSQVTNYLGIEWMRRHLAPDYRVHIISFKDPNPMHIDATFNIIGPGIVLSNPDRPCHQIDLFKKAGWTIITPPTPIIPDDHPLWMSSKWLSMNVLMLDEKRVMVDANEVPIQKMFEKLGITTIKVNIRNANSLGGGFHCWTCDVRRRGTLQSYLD

compound: COc1ccc(Cn2ccc3cc(C)c(C(=O)NO)cc32)cc1; test: dose-dependent thermal stabilisation call (2D-TPP, DLPTP, 10% FDR) (binary (1 = stabilised)); higher = stabilised by the compound; settings: system: HL-60 intact cells; concentration range 0.04-10 µM
Procedure: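 2D thermal proteome profiling in intact HL-60 cells treated with BRD-3811 (0, 0.04, 0.29, 2, 10 uM) for 90 min at 37 C, then heated 3 min at one of 12 temperatures (42-63.9 C). Soluble protein was quantified by TMT10 MS. The value is the DLPTP call of the paper: dose-dependent thermal stabilisation over all temperatures at 10% FDR (F-test of a dose-response against a flat model); one experiment, one call per tested protein.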

Row | Target | dose-dependent thermal stabilisation call
1 | FLI1 (UniProt Q01543) | inactive: 0
2 | FLNA (UniProt P21333) | inactive: 0
3 | FBXL10 (UniProt Q8NHM5) | inactive: 0
4 | GMIP (UniProt Q9P107) | inactive: 0
5 | GATC (UniProt O43716) | inactive: 0
6 | GGT5 (UniProt P36269) | inactive: 0
7 | FAM76B (UniProt Q5HYJ3) | inactive: 0
8 | FAM98C (UniProt Q17RN3) | inactive: 0
9 | GNG5 (UniProt P63218) | inactive: 0
10 | GCOM1 | inactive: 0
11 | FBXW9 (UniProt Q5XUX1) | inactive: 0
12 | FAM98A (UniProt Q8NCA5) | inactive: 0
13 | GEMIN7 (UniProt Q9H840) | inactive: 0
14 | GLRX3 (UniProt O76003) | inactive: 0
15 | GAPVD1 (UniProt Q14C86) | inactive: 0
16 | FTSJD1 (UniProt Q8IYT2) | inactive: 0
17 | GLOD4 (UniProt Q9HC38) | inactive: 0
18 | FCHO1 (UniProt O14526) | inactive: 0

Row | Target | dose-dependent thermal stabilisation call
19 | GAN (UniProt Q9H2C0) | inactive: 0
20 | GALNS (UniProt P34059) | inactive: 0
21 | GCN1L1 (UniProt Q92616) | inactive: 0
22 | GLT25D2 (UniProt Q8IYK4) | inactive: 0
23 | GCHFR (UniProt P30047) | inactive: 0
24 | FPGS (UniProt Q05932) | inactive: 0
25 | FUT11 (UniProt Q495W5) | inactive: 0
26 | GCLC (UniProt P48506) | inactive: 0
27 | FBXL18 (UniProt Q96ME1) | inactive: 0
28 | FTSJ3 (UniProt Q8IY81) | inactive: 0
29 | GINS2 (UniProt Q9Y248) | inactive: 0
30 | GFPT1 (UniProt Q06210) | active: 1
31 | FUCA1 (UniProt P04066) | inactive: 0
32 | GABPB1 (UniProt Q06547) | inactive: 0
33 | FLYWCH2 (UniProt Q96CP2) | inactive: 0
34 | FAM96B (UniProt Q9Y3D0) | inactive: 0
35 | GATM (UniProt P50440) | inactive: 0
36 | FDPS (UniProt P14324) | inactive: 0

Another view of part of the listing above:
Row	Target	dose-dependent thermal stabilisation call
2	FLNA (UniProt P21333)	inactive: 0
3	FBXL10 (UniProt Q8NHM5)	inactive: 0
4	GMIP (UniProt Q9P107)	inactive: 0
5	GATC (UniProt O43716)	inactive: 0
6	GGT5 (UniProt P36269)	inactive: 0
7	FAM76B (UniProt Q5HYJ3)	inactive: 0
8	FAM98C (UniProt Q17RN3)	inactive: 0
9	GNG5 (UniProt P63218)	inactive: 0
